# In PubChem BioAssay AID2517 (National Center for Advancing Translational Sciences (NCATS), 2012):
# Amino acid sequences for entries named in this document (tags omitted).
# UniProt P27695, whole entry, looked up: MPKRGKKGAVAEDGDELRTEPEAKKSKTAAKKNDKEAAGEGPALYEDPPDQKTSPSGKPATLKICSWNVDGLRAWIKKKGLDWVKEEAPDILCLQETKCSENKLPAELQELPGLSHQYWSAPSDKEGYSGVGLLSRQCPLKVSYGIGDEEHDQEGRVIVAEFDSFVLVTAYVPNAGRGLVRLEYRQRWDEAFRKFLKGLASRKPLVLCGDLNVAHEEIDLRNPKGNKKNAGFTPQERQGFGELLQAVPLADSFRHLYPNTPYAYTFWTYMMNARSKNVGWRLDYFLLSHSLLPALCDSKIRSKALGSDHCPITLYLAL
# Where “and” joins values, the source holds several entries; their conditions need not be identical. Equal entries are not always repeated. What follows is the remainder of the data, with few or none of the hits. Results filed as inconclusive are left out. Calls of active or inactive are those of the source. Calls follow the shape of the dose curve; as a rule, active = well fitted inhibition curve with a large enough effect; inconclusive = small, poorly fitted or top-dose-only effect; inactive = no such curve, though single readings can be large or run the other way.
# Target: DNA repair nuclease/redox regulator APEX1 (Homo sapiens) (UniProt P27695)
# Assay: qHTS Assay for Inhibitors of the Human Apurinic/apyrimidinic Endonuclease 1 (APE1);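 also: plate controls were vehicle for no effect and reference inhibitor for full effect; nearly all actives have a fitted effect of over 55% in size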
# Conditions: recombinant APE1, TAMRA/BHQ-2 abasic DNA cleavage fluorescence
# Source text: The apurinic/apyrimidinic endonuclease APE1 is the primary mammalian enzyme responsible for the removal of abasic (or AP) sites in DNA and functions centrally in the base excision DNA repair (BER) pathway. […] Thus, targeting APE1 could improve the efficacy of current treatment paradigms by promoting selective sensitization or protection of diseased and normal cells, respectively.
# Inhibition of APE1 activity was screened by utilizing double-stranded short substrate containing tetrahydrofuran (THF) abasic site labeled with rhodamine-type fluorophore (TAMRA) at the 5'-end and with non-fluorescent Black Hole Quencher-2 (BHQ-2) at the opposing 3'-end. An increase in the fluorescence intensity due to incision of the abasic site by APE1 was used to measure the enzyme activity.
# NIH Chemical Genomics Center [NCGC]
# NIH Molecular Libraries Probe Centers Network [MLPCN]
# Assay Provider: David M. Wilson, III, National Institute on Aging, NIH
# Three uL of enzyme solution (0.75 nM APE1 final concentration) was dispensed to 1536-well Greiner black solid bottom plates. […] The plates were incubated for 15 min at room temperature, and then 1 uL of substrate solution (50 nM final concentration of TAMRA/BHQ-2) was added to start the reaction. The plates were immediately transferred into ViewLux High-throughput CCD imager (Perkin-Elmer) in order to measure the reaction progress in kinetic mode (three reads every 60 seconds) using 525 nm excitation and 598 nm emission fluorescence protocol. The fluorescence intensity difference between the third and the first time points was used to compute reaction progress. Results were normalized to buffer only columns and NSC13755 positive controls and negative control DMSO treated wells.
SMILES,"activity change, negative = inhibition (at 21 µM (top of the series))","activity change, negative = inhibition (at 65.8 µM (top of the series))"
CN1[C@@H]2CC[C@H]1CC(OC(=O)C(O)c1ccccc1)C2 (stereo partly drawn),inactive: 0.386%,inactive: 2.17%
CN1C2CCC1CC(OC(=O)C(O)c1ccccc1)C2 (stereo not drawn),,inactive: 17.6% and inactive: 2.43%
